In publication PMC4076869:
Results are given in words; binding and its absence hold for the method and conditions named. In cells and extracts the contact can be indirect. Some binding calls cover weakened binding; strength is not graded here. For some assays here: Where a sequence is shown, tags or fusion partners need not be part of it.

Amino acid sequences for entries named in this document (tags omitted). A change or cut given only in a name is not applied to a line headed by its entry.
UniProt P03255: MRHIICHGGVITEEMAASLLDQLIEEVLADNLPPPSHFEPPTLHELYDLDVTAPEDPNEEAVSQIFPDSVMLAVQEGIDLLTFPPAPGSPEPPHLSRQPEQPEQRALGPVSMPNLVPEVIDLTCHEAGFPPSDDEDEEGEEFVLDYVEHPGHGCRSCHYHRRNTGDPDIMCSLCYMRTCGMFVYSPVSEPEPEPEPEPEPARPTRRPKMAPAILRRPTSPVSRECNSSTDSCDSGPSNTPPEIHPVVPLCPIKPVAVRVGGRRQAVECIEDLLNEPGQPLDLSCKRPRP
UniProt O00716: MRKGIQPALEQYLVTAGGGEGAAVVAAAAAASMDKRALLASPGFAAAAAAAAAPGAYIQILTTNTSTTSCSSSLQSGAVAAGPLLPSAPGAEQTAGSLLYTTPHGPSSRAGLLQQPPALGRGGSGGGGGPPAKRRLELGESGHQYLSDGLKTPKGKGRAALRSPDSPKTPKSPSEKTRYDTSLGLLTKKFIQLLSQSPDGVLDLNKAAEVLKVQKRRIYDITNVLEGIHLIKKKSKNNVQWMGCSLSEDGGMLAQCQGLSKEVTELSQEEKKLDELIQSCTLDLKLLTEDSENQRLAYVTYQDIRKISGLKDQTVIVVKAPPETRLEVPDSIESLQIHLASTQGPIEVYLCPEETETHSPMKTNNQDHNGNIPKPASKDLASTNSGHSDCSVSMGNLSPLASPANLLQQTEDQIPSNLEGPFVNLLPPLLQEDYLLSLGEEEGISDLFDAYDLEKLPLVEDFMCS
UniProt Q14209: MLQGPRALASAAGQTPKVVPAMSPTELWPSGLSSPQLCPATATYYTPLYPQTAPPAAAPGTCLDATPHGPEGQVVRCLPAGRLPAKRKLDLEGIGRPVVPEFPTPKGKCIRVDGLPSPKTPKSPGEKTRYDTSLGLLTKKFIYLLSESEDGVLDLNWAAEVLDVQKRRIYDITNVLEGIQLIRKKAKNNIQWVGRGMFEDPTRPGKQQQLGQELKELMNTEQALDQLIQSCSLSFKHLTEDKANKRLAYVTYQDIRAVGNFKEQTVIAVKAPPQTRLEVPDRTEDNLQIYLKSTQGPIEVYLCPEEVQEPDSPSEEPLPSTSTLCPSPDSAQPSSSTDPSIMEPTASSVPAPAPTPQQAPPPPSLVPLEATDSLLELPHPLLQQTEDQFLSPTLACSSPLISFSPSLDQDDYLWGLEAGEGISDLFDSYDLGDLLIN

Assays:
Assay in all cases: co-IP; each Rb-HA construct co-transfected into cells co-expressing E1a or a Myc-tagged E2F; E1a or the E2F immunoprecipitated, immunoblot for the associated Rb-HA
[1] = target: E1a oncoprotein (adenovirus (type not stated)) (UniProt P03255)
[2] = target: E2F-3 transcription factor (Myc tagged) (UniProt O00716)
[3] = target: E2F-2 transcription factor (Myc tagged) (UniProt Q14209)

binding [2] | binding [3] | Molecule | binding [1]
 |  | Rb-HA single Cdk site construct S612 (mono-phosphorylated Rb isoform) (from UniProt P06400 1-928) | binds
 |  | Rb-HA single Cdk site construct S608 (mono-phosphorylated Rb isoform) (from UniProt P06400 1-928) | binds
 |  | Rb-HA single Cdk site construct T821 (mono-phosphorylated Rb isoform) (from UniProt P06400 1-928) | binds
 |  | Rb-HA single Cdk site construct T252 (mono-phosphorylated Rb isoform) (from UniProt P06400 1-928) | binds
 |  | Rb-HA single Cdk site construct S249 (mono-phosphorylated Rb isoform) (from UniProt P06400 1-928) | binds
 |  | Rb-HA single Cdk site construct S788 (mono-phosphorylated Rb isoform) (from UniProt P06400 1-928) | binds
 |  | Rb-HA single Cdk site construct S807 (mono-phosphorylated Rb isoform) (from UniProt P06400 1-928) | binds
 |  | Rb-HA single Cdk site construct S811 (mono-phosphorylated Rb isoform) (from UniProt P06400 1-928) | binds
 |  | Rb-HA single Cdk site construct T373 (mono-phosphorylated Rb isoform) (from UniProt P06400 1-928) | binds
 |  | Rb-HA single Cdk site construct T826 (mono-phosphorylated Rb isoform) (from UniProt P06400 1-928) | binds
 |  | Rb-HA single Cdk site construct S230 (mono-phosphorylated Rb isoform) (from UniProt P06400 1-928) | binds
 |  | Rb-HA single Cdk site construct S780 (mono-phosphorylated Rb isoform) (from UniProt P06400 1-928) | binds
 |  | Rb-HA single Cdk site construct S795 (mono-phosphorylated Rb isoform) (from UniProt P06400 1-928) | binds
 |  | non-phosphorylatable ΔCdk Rb-HA (human Rb^ΔCDK-HA) (from UniProt P06400 1-928) | binds
 |  | Rb-HA single Cdk site construct T356 (mono-phosphorylated Rb isoform) (from UniProt P06400 1-928) | binds
binds | binds | Rb-HA single Cdk site construct T252 (mono-phosphorylated Rb isoform) (protein, UniProt P06400 1-928, phosphate on T252 (mono-phosphorylated in cells)) MPPKAPRKTAATAAAAAAEPPAPPPPPPPEEDPEQDSGPEDLPLVRLEFEETEEPDFTALCQKLKIPDHVRERAWLTWEKVSSVDGVLGGYIQKKKELWGICIFIAAVDLDEMSFTFTELQKNIEISVHKFFNLLKEIDTSTKVDNAMSRLLKKYDVLFALFSKLERTCELIYLTQPSSSISTEINSALVLKVSWITFLLAKGEVLQMEDDLVISFQLMLCVLDYFIKLAPPMLLKEPYKTAVIPINGAPRTPRRGQNRSARIAKQLENDTRIIEVLCKEHECNIDEVKNVYFKNFIPFMNSLGLVTSNGLPEVENLSKRYEEIYLKNKDLDARLFLDHDKTLQTDSIDSFETQRAPRKSNLDEEVNVIPPHAPVRTVMNTIQQLMMILNSASDQPSENLISYFNNCTVNPKESILKRVKDIGYIFKEKFAKAVGQGCVEIGSQRYKLGVRLYYRVMESMLKSEEERLSIQNFSKLLNDNIFHMSLLACALEVVMATYSRSTSQNLDSGTDLSFPWILNVLNLKAFDFYKVIESFIKAEGNLTREMIKHLERCEHRIMESLAWLSDSPLFDLIKQSKDREGPTDHLESACPLNLPLQNNHTAADMYLAPVRAPKKKGSTTRVNSTANAETQATSAFQTQKPLKSTSLSLFYKKVYRLAYLRLNTLCERLLSEHPELEHIIWTLFQHTLQNEYELMRDRHLDQIMMCSMYGICKVKNIDLKFKIIVTAYKDLPHAVQETFKRVLIKEEEYDSIIVFYNSVFMQRLKTNILQYASTRPPTLAPIPHIPRAPYKFPSAPLRIPGGNIYIAPLKAPYKISEGLPAPTKMAPRSRILVSIGESFGTSEKFQKINQMVCNSDRVLKRSAEGSNPPKPLKKLRFDIEGSDEADGSKHLPGESKFQQKLAEMTSTRTRMQKQKMNDSMDTSNKEEK | 
binds | binds | Rb-HA single Cdk site construct S608 (mono-phosphorylated Rb isoform) (protein, UniProt P06400 1-928, phosphate on S608 (mono-phosphorylated in cells)) MPPKAPRKTAATAAAAAAEPPAPPPPPPPEEDPEQDSGPEDLPLVRLEFEETEEPDFTALCQKLKIPDHVRERAWLTWEKVSSVDGVLGGYIQKKKELWGICIFIAAVDLDEMSFTFTELQKNIEISVHKFFNLLKEIDTSTKVDNAMSRLLKKYDVLFALFSKLERTCELIYLTQPSSSISTEINSALVLKVSWITFLLAKGEVLQMEDDLVISFQLMLCVLDYFIKLAPPMLLKEPYKTAVIPINGAPRAPRRGQNRSARIAKQLENDTRIIEVLCKEHECNIDEVKNVYFKNFIPFMNSLGLVTSNGLPEVENLSKRYEEIYLKNKDLDARLFLDHDKTLQTDSIDSFETQRAPRKSNLDEEVNVIPPHAPVRTVMNTIQQLMMILNSASDQPSENLISYFNNCTVNPKESILKRVKDIGYIFKEKFAKAVGQGCVEIGSQRYKLGVRLYYRVMESMLKSEEERLSIQNFSKLLNDNIFHMSLLACALEVVMATYSRSTSQNLDSGTDLSFPWILNVLNLKAFDFYKVIESFIKAEGNLTREMIKHLERCEHRIMESLAWLSDSPLFDLIKQSKDREGPTDHLESACPLNLPLQNNHTAADMYLSPVRAPKKKGSTTRVNSTANAETQATSAFQTQKPLKSTSLSLFYKKVYRLAYLRLNTLCERLLSEHPELEHIIWTLFQHTLQNEYELMRDRHLDQIMMCSMYGICKVKNIDLKFKIIVTAYKDLPHAVQETFKRVLIKEEEYDSIIVFYNSVFMQRLKTNILQYASTRPPTLAPIPHIPRAPYKFPSAPLRIPGGNIYIAPLKAPYKISEGLPAPTKMAPRSRILVSIGESFGTSEKFQKINQMVCNSDRVLKRSAEGSNPPKPLKKLRFDIEGSDEADGSKHLPGESKFQQKLAEMTSTRTRMQKQKMNDSMDTSNKEEK | 
binds | binds | Rb-HA single Cdk site construct T356 (mono-phosphorylated Rb isoform) (protein, UniProt P06400 1-928, phosphate on T356 (mono-phosphorylated in cells)) MPPKAPRKTAATAAAAAAEPPAPPPPPPPEEDPEQDSGPEDLPLVRLEFEETEEPDFTALCQKLKIPDHVRERAWLTWEKVSSVDGVLGGYIQKKKELWGICIFIAAVDLDEMSFTFTELQKNIEISVHKFFNLLKEIDTSTKVDNAMSRLLKKYDVLFALFSKLERTCELIYLTQPSSSISTEINSALVLKVSWITFLLAKGEVLQMEDDLVISFQLMLCVLDYFIKLAPPMLLKEPYKTAVIPINGAPRAPRRGQNRSARIAKQLENDTRIIEVLCKEHECNIDEVKNVYFKNFIPFMNSLGLVTSNGLPEVENLSKRYEEIYLKNKDLDARLFLDHDKTLQTDSIDSFETQRTPRKSNLDEEVNVIPPHAPVRTVMNTIQQLMMILNSASDQPSENLISYFNNCTVNPKESILKRVKDIGYIFKEKFAKAVGQGCVEIGSQRYKLGVRLYYRVMESMLKSEEERLSIQNFSKLLNDNIFHMSLLACALEVVMATYSRSTSQNLDSGTDLSFPWILNVLNLKAFDFYKVIESFIKAEGNLTREMIKHLERCEHRIMESLAWLSDSPLFDLIKQSKDREGPTDHLESACPLNLPLQNNHTAADMYLAPVRAPKKKGSTTRVNSTANAETQATSAFQTQKPLKSTSLSLFYKKVYRLAYLRLNTLCERLLSEHPELEHIIWTLFQHTLQNEYELMRDRHLDQIMMCSMYGICKVKNIDLKFKIIVTAYKDLPHAVQETFKRVLIKEEEYDSIIVFYNSVFMQRLKTNILQYASTRPPTLAPIPHIPRAPYKFPSAPLRIPGGNIYIAPLKAPYKISEGLPAPTKMAPRSRILVSIGESFGTSEKFQKINQMVCNSDRVLKRSAEGSNPPKPLKKLRFDIEGSDEADGSKHLPGESKFQQKLAEMTSTRTRMQKQKMNDSMDTSNKEEK | 
binds | binds | Rb-HA single Cdk site construct S612 (mono-phosphorylated Rb isoform) (protein, UniProt P06400 1-928, phosphate on S612 (mono-phosphorylated in cells)) MPPKAPRKTAATAAAAAAEPPAPPPPPPPEEDPEQDSGPEDLPLVRLEFEETEEPDFTALCQKLKIPDHVRERAWLTWEKVSSVDGVLGGYIQKKKELWGICIFIAAVDLDEMSFTFTELQKNIEISVHKFFNLLKEIDTSTKVDNAMSRLLKKYDVLFALFSKLERTCELIYLTQPSSSISTEINSALVLKVSWITFLLAKGEVLQMEDDLVISFQLMLCVLDYFIKLAPPMLLKEPYKTAVIPINGAPRAPRRGQNRSARIAKQLENDTRIIEVLCKEHECNIDEVKNVYFKNFIPFMNSLGLVTSNGLPEVENLSKRYEEIYLKNKDLDARLFLDHDKTLQTDSIDSFETQRAPRKSNLDEEVNVIPPHAPVRTVMNTIQQLMMILNSASDQPSENLISYFNNCTVNPKESILKRVKDIGYIFKEKFAKAVGQGCVEIGSQRYKLGVRLYYRVMESMLKSEEERLSIQNFSKLLNDNIFHMSLLACALEVVMATYSRSTSQNLDSGTDLSFPWILNVLNLKAFDFYKVIESFIKAEGNLTREMIKHLERCEHRIMESLAWLSDSPLFDLIKQSKDREGPTDHLESACPLNLPLQNNHTAADMYLAPVRSPKKKGSTTRVNSTANAETQATSAFQTQKPLKSTSLSLFYKKVYRLAYLRLNTLCERLLSEHPELEHIIWTLFQHTLQNEYELMRDRHLDQIMMCSMYGICKVKNIDLKFKIIVTAYKDLPHAVQETFKRVLIKEEEYDSIIVFYNSVFMQRLKTNILQYASTRPPTLAPIPHIPRAPYKFPSAPLRIPGGNIYIAPLKAPYKISEGLPAPTKMAPRSRILVSIGESFGTSEKFQKINQMVCNSDRVLKRSAEGSNPPKPLKKLRFDIEGSDEADGSKHLPGESKFQQKLAEMTSTRTRMQKQKMNDSMDTSNKEEK | 
